# Test results as given in the supplement of paper PMC10032668.
# By UniProt entry, the sequences of proteins in these tests, tags left out.
# KHDRBS1, Q07666, UniProt Q07666, whole entry: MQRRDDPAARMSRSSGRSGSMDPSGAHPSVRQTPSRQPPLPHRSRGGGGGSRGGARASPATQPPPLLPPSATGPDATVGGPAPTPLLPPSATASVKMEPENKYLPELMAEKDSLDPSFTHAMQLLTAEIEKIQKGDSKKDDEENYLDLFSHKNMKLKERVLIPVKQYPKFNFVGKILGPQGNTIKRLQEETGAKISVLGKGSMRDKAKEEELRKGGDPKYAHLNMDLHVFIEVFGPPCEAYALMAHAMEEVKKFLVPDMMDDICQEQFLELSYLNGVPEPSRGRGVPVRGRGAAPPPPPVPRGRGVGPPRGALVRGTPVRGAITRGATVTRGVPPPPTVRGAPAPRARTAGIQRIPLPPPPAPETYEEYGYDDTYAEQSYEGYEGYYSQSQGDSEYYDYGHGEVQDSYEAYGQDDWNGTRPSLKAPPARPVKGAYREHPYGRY
# MORF4L1, Q9UBU8, UniProt Q9UBU8, whole entry: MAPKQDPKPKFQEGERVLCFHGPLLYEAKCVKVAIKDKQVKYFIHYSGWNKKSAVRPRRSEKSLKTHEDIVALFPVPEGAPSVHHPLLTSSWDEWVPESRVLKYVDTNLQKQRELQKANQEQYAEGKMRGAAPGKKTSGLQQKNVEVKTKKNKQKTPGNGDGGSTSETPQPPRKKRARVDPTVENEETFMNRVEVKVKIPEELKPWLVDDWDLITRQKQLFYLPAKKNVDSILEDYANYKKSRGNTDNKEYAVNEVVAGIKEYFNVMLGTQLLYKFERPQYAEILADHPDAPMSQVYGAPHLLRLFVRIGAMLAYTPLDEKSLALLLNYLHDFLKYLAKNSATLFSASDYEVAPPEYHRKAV
# MORF4L2, Q15014, UniProt Q15014, whole entry: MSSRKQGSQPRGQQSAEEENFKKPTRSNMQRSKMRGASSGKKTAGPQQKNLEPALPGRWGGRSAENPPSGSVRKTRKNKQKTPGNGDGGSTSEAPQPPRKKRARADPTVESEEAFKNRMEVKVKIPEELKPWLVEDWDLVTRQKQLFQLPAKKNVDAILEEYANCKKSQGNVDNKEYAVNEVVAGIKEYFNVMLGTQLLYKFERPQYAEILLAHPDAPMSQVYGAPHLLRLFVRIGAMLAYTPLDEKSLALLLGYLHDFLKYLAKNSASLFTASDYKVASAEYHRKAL
# MPG, P29372, UniProt P29372, whole entry: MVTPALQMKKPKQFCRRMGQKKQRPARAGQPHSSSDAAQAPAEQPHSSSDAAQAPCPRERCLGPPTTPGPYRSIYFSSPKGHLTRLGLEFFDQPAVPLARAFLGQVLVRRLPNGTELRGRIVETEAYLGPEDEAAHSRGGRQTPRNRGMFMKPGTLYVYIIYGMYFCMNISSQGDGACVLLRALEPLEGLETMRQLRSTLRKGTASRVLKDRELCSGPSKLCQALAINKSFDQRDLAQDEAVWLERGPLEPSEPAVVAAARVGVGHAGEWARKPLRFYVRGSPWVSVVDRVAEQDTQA
# PDLIM7, Q9NR12, UniProt Q9NR12, whole entry: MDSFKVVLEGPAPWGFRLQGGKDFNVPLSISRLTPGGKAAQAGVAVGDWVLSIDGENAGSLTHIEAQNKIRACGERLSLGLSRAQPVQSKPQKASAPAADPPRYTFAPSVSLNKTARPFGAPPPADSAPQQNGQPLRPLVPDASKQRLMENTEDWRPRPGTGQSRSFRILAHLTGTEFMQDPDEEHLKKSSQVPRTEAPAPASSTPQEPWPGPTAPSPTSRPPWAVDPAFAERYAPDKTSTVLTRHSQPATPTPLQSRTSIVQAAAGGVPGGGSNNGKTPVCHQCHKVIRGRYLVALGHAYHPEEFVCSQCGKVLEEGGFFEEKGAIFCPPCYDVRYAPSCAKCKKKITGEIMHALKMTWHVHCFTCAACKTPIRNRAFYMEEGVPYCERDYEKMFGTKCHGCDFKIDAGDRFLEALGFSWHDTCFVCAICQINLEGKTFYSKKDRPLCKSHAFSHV
# PIN1, Q13526, UniProt Q13526, whole entry: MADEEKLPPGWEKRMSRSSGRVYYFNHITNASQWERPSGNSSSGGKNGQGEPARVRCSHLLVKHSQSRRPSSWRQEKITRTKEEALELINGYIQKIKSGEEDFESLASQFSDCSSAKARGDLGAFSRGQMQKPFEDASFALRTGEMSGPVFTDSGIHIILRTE
# PIN4, Q9Y237, UniProt Q9Y237, whole entry: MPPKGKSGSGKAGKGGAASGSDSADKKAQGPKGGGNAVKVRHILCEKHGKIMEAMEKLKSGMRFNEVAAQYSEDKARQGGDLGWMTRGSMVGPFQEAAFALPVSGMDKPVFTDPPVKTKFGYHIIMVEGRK
# PLK1, P53350, UniProt P53350, whole entry: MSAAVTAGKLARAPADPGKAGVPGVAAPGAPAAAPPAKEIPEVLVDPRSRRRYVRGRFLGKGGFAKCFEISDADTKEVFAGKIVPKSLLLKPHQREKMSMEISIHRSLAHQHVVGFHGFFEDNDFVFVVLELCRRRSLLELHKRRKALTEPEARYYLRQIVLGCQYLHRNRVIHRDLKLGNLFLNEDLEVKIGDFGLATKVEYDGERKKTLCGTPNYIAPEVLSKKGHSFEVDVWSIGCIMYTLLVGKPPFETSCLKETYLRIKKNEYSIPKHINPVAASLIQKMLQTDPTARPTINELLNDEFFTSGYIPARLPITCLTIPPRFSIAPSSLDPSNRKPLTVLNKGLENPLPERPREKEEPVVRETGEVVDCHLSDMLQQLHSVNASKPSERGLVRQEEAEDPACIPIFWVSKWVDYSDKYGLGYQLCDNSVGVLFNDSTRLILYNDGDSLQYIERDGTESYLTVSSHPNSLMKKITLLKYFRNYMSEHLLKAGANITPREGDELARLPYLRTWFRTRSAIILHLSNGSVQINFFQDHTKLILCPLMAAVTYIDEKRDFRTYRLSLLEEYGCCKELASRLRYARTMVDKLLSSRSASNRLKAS
# ± gives the standard deviation of the averaged measurements. This is one part of the list. The list holds hits alone, and they repeat only in part.
# What was measured:
# Assay in all cases: PRISMA enrichment of interactor (LFQ) in peptide spot vs all other peptide spots (log2 fold change); higher = stronger / more specific binding of the interactor to the peptide
# [1] = molecular target: KHDRBS1, Q07666
# Procedure: (§1)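 PRISMA: 221 full-length sORF-encoded peptides (3-15 aa), plus SOS1/GLUT1 control peptides, were spot-synthesized on cellulose membranes in triplicate. Membranes were incubated with HEK293T lysate, and bound proteins were identified by LC-MS/MS with LFQ. Enrichment is the log2 fold change versus all other peptide spots; only significant interactors are listed (cutoff c=6, x0=2.8).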
# [2] = molecular target: KIF2C, Q99661
# Procedure: as §1
# [3] = molecular target: KIFC1, Q9BW19
# Procedure: as §1
# [4] = molecular target: LSM14A, Q8ND56
# Procedure: as §1
# [5] = molecular target: LSM14B, Q9BX40
# Procedure: as §1
# [6] = molecular target: MACF1
# Procedure: as §1
# [7] = molecular target: MAP4, P27816
# Procedure: as §1
# [8] = molecular target: MAP7D1, Q3KQU3
# Procedure: as §1
# [9] = molecular target: MAZ, P56270
# Procedure: as §1
# [10] = molecular target: MCAT, Q8IVS2
# Procedure: as §1
# [11] = molecular target: MORF4L1, Q9UBU8
# Procedure: as §1
# [12] = molecular target: MORF4L2, Q15014
# Procedure: as §1
# [13] = molecular target: MPG, P29372
# Procedure: as §1
# [14] = molecular target: MRM2, Q9UI43
# Procedure: as §1
# [15] = molecular target: MRNIP, Q6NTE8
# Procedure: as §1
# [16] = molecular target: MRRF, Q96E11
# Procedure: as §1
# [17] = molecular target: MTHFD2, P13995
# Procedure: as §1
# [18] = molecular target: NIFK, Q9BYG3
# Procedure: as §1
# [19] = molecular target: NME4, O00746
# Procedure: as §1
# [20] = molecular target: NOL7, Q9UMY1
# Procedure: as §1
# [21] = substrate: NONO, Q15233
# Procedure: as §1
# [22] = substrate: NOSIP, Q9Y314
# Procedure: as §1
# [23] = molecular target: NSUN4, Q96CB9
# Procedure: as §1
# [24] = molecular target: NTHL1, P78549
# Procedure: as §1
# [25] = molecular target: NUDT16, Q96DE0
# Procedure: as §1
# [26] = molecular target: NUDT16L1, Q9BRJ7
# Procedure: as §1
# [27] = molecular target: NUFIP2, Q7Z417
# Procedure: as §1
# [28] = molecular target: NUSAP1, Q9BXS6
# Procedure: as §1
# [29] = molecular target: PAK4, O96013
# Procedure: as §1
# [30] = molecular target: PARP2, Q9UGN5
# Procedure: as §1
# [31] = molecular target: PCLAF, Q15004
# Procedure: as §1
# [32] = molecular target: PDF, Q9HBH1
# Procedure: as §1
# [33] = molecular target: PDLIM7, Q9NR12
# Procedure: as §1
# [34] = molecular target: PIN1, Q13526
# Procedure: as §1
# [35] = molecular target: PIN4, Q9Y237
# Procedure: as §1
# [36] = molecular target: PINX1, Q96BK5
# Procedure: as §1
# [37] = molecular target: PLK1, P53350
# Procedure: as §1
# [38] = molecular target: POLDIP3, Q9BY77
# Procedure: as §1
# [39] = molecular target: POLR1D
# Procedure: as §1
# [40] = substrate: PPIF, P30405
# Procedure: as §1
# [41] = molecular target: PPIL2, Q13356
# Procedure: as §1
# [42] = molecular target: PRRC2A, P48634
# Procedure: as §1
# [43] = molecular target: PSPC1, Q8WXF1
# Procedure: as §1
# [44] = molecular target: PSRC1, Q6PGN9
# Procedure: as §1
# [45] = molecular target: PYCR1, P32322
# Procedure: as §1
# [46] = molecular target: PYCR2, Q96C36
# Procedure: as §1
# [47] = molecular target: RBIS, Q8N0T1
# Procedure: as §1
# [48] = molecular target: RBM14, Q96PK6
# Procedure: as §1
# [49] = molecular target: RBM27, Q9P2N5
# Procedure: as §1
# [50] = molecular target: RBM33, Q96EV2
# Procedure: as §1
# [51] = molecular target: RBMX, P38159
# Procedure: as §1
# [52] = molecular target: RPUSD3, Q6P087
# Procedure: as §1
# [53] = molecular target: SAFB, Q15424
# Procedure: as §1
# [54] = molecular target: SAFB2, Q14151
# Procedure: as §1
# [55] = molecular target: SEH1L, Q96EE3
# Procedure: as §1
# [56] = molecular target: SERF2, P84101
# Procedure: as §1
# [57] = molecular target: SF1, Q15637
# Procedure: as §1
# [58] = molecular target: SFPQ, P23246
# Procedure: as §1
# [59] = molecular target: SLTM, Q9NWH9
# Procedure: as §1
# [60] = molecular target: SMNDC1, O75940
# Procedure: as §1
binder,measurement,setting,value
MTEYWVPEI [RCBTB2],PRISMA enrichment of interactor (log2),[1],7.8
same,PRISMA enrichment of interactor (log2),[2],5.97
same,PRISMA enrichment of interactor (log2),[3],6.02
same,PRISMA enrichment of interactor (log2),[4],6.61
same,PRISMA enrichment of interactor (log2),[5],3.92
same,PRISMA enrichment of interactor (log2),[6],4.91
same,PRISMA enrichment of interactor (log2),[7],6.5
same,PRISMA enrichment of interactor (log2),[8],3.83
same,PRISMA enrichment of interactor (log2),[9],6.04 ± 1.5
same,PRISMA enrichment of interactor (log2),[10],4.6
same,PRISMA enrichment of interactor (log2),[11],6.5
same,PRISMA enrichment of interactor (log2),[12],8.26
same,PRISMA enrichment of interactor (log2),[13],7.8
same,PRISMA enrichment of interactor (log2),[14],4.83
same,PRISMA enrichment of interactor (log2),[15],3.63
same,PRISMA enrichment of interactor (log2),[16],5.15
same,PRISMA enrichment of interactor (log2),[17],4.92
same,PRISMA enrichment of interactor (log2),[18],6.8
same,PRISMA enrichment of interactor (log2),[19],7.21
same,PRISMA enrichment of interactor (log2),[20],4.09
same,PRISMA enrichment of interactor (log2),[21],6.95
same,PRISMA enrichment of interactor (log2),[22],6.49
same,PRISMA enrichment of interactor (log2),[23],5.29
same,PRISMA enrichment of interactor (log2),[24],5.45
same,PRISMA enrichment of interactor (log2),[25],4.05
same,PRISMA enrichment of interactor (log2),[26],5.7
same,PRISMA enrichment of interactor (log2),[27],4.9
same,PRISMA enrichment of interactor (log2),[28],6.7
same,PRISMA enrichment of interactor (log2),[29],7.47
same,PRISMA enrichment of interactor (log2),[30],4.4
same,PRISMA enrichment of interactor (log2),[31],5.82
same,PRISMA enrichment of interactor (log2),[32],5.16
same,PRISMA enrichment of interactor (log2),[33],4.81
same,PRISMA enrichment of interactor (log2),[34],5.32
same,PRISMA enrichment of interactor (log2),[35],7.31
same,PRISMA enrichment of interactor (log2),[36],6.33
same,PRISMA enrichment of interactor (log2),[37],7
same,PRISMA enrichment of interactor (log2),[38],5.94
same,PRISMA enrichment of interactor (log2),[39],3.73
same,PRISMA enrichment of interactor (log2),[40],7.5
same,PRISMA enrichment of interactor (log2),[41],7.43
same,PRISMA enrichment of interactor (log2),[42],6.86
same,PRISMA enrichment of interactor (log2),[43],8.52
same,PRISMA enrichment of interactor (log2),[44],6.21
same,PRISMA enrichment of interactor (log2),[45],5.04
same,PRISMA enrichment of interactor (log2),[46],5.53
same,PRISMA enrichment of interactor (log2),[47],4.75
same,PRISMA enrichment of interactor (log2),[48],5.82
same,PRISMA enrichment of interactor (log2),[49],5.46
same,PRISMA enrichment of interactor (log2),[50],7.7
same,PRISMA enrichment of interactor (log2),[51],5.22
same,PRISMA enrichment of interactor (log2),[52],5.97
same,PRISMA enrichment of interactor (log2),[53],5.99
same,PRISMA enrichment of interactor (log2),[54],5.11
same,PRISMA enrichment of interactor (log2),[55],4.66
same,PRISMA enrichment of interactor (log2),[56],6.99
same,PRISMA enrichment of interactor (log2),[57],5.36
same,PRISMA enrichment of interactor (log2),[58],6.66
same,PRISMA enrichment of interactor (log2),[59],5.59
same,PRISMA enrichment of interactor (log2),[60],4.34

# 13 successive records already listed, quoted:
binder,measurement,setting,value
MTEYWVPEI [RCBTB2],PRISMA enrichment of interactor (log2),[24],5.45
same,PRISMA enrichment of interactor (log2),[25],4.05
same,PRISMA enrichment of interactor (log2),[26],5.7
same,PRISMA enrichment of interactor (log2),[27],4.9
same,PRISMA enrichment of interactor (log2),[28],6.7
same,PRISMA enrichment of interactor (log2),[29],7.47
same,PRISMA enrichment of interactor (log2),[30],4.4
same,PRISMA enrichment of interactor (log2),[31],5.82
same,PRISMA enrichment of interactor (log2),[32],5.16
same,PRISMA enrichment of interactor (log2),[33],4.81
same,PRISMA enrichment of interactor (log2),[34],5.32
same,PRISMA enrichment of interactor (log2),[35],7.31
same,PRISMA enrichment of interactor (log2),[36],6.33
